Results are given in words; binding and its absence hold for the method and conditions named. In cells and extracts the contact can be indirect. Some binding calls cover weakened binding; strength is not graded here.

This assay addresses E3 ubiquitin ligase c-Cbl (human (endogenous in HCC cells)) (UniProt P22681). The experiment in a line: co-IP; HCC cells lysed in RIPA buffer with protease inhibitors; anti-PSMD9 or anti-CBL antibody or negative control IgG on protein A/G agarose, overnight at 4 °C; washed five times; Western blotting.

B1: 26S proteasome non-ATPase regulatory subunit 9 (PSMD9) (protein, UniProt O00233 1-223)
chain: MSDEEARQSGGSSQAGVVTVSDVQELMRRKEEIEAQIKANYDVLESQKGIGMNEPLVDCEGYPRSDVDLYQVRTARHNIICLQNDHKAVMKQVEEALHQLHARDKEKQARDMAEAHKEAMSRKLGQSESQGPPRAFAKVNSISPGSPASIAGLQVDDEIVEFGSVNTQNFQSLHNIGSVVQHSEGKPLNVTVIRRGEKHQLRLVPTRWAGKGLLGCNIIPLQR
On to B1, for which the binding entry was “binds”.
